# This is one part of the list. Shown are side measurements of this screen, not its main read-out; they come without a call. The list favours compounds with an active or inconclusive main result. Words in brackets tell the shape of the fitted curve; partial curves, single points and poor fits give uncertain potencies.
# Experiment: qHTS Assay for Lipid Storage Modulators in Drosophila S3 Cells;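 as to cell number change: cells counted by Cell Tracker Red CMTPX staining in the red channel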
# Settings: BODIPY lipid droplet fluorescence, 18-24 h; for cell number change: measured here: cell count max response, cells fed with added oleic acid
# How it was run: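 Drosophila S3 cells loaded with oleic acid (400 uM, as added) and compounds at several concentrations; lipid droplets imaged by 488-nm laser-scanning cytometry, 500–530 nm intensity and object ratio to cell channel. Percent activity normalized to 20 uM Triacsin C.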
# [1] = measured here: cell number channel AC50, cells fed with added oleic acid
# [2] = measured here: lipid fluorescence (Fed channel) AC50, cells fed with added oleic acid
Compound,cell number change,AC50 [1],AC50 [2]
CCOC(=O)Cn1c(=O)oc2cc(S(=O)(=O)N3CCCC(C(=O)OCC)C3)ccc21 (stereo not given),0.408%,–,–
COc1ccc(-c2c[n+]3c(n2-c2ccc(C)cc2)CCCCC3)cc1,-62.6%,"9.2 µM [falling, partial curve]","8.2 µM [falling, partial curve]"
Cc1nc2ccc(NC(=O)c3ccco3)cc2nc1C,-32.4%,–,"5.17 µM [falling, single point]"
c1nc(NC2CCCCC2)c2[nH]cnc2n1,79.7%,"5.8 µM [rising, partial curve]","2.06 µM [rising, partial curve]"
COc1ccc(-c2oc3cccnc3c2C#CC2(O)CCCCC2)cc1,-14.6%,–,"23.1 µM [falling, single point]"
CCCN(CC#CC(O)(c1ccccc1)c1cccnc1)CCC (stereo not given),5.44%,–,–
O=C(COC(=O)COc1ccc(Cl)cc1)NC1CC1,3.41%,–,"2.91 µM [falling, single point]"
CCN(CC)C1CCN(C(=O)c2ccc(OC3CCN(CCc4ccccc4)CC3)cc2)C1 (stereo not given),7.43%,–,"3.26 µM [falling, partial curve, poor fit]"
CCN1C(=S)SC(=O)C1=C1C=C(C)N(CCOC)C(C)=C1,12.9%,–,"0.259 µM [rising, partial curve, poor fit]"
Cc1ccc(S(=O)(=O)N(C)C)cc1NC(=O)C1CCCCN1S(=O)(=O)c1ccccc1 (stereo not given),-9.17%,"1.16 µM [rising, partial curve]","0.731 µM [rising, full curve]"
COc1cccc(C(=O)N2CCOCC2)c1OC,18.5%,–,–
Cc1ccc(N(C)S(=O)(=O)c2cccc(C(=O)Nc3nc4ccccc4[nH]3)c2)cc1,-7.07%,–,"32.6 µM [rising, single point]"
Nc1cc(C(F)(F)F)ccc1OCC1CCCO1 (stereo not given),-6.18%,–,"0.164 µM [falling, full curve, poor fit]"
Cc1sc(NC(=O)c2ccccc2)c(C(=O)NC(C)C)c1C,94.4%,"29.1 µM [rising, single point]",–
O=C(O)COc1ccc2occ(C(=O)c3ccccc3)c2c1,-1.45%,–,–
COC(=O)NNC(=S)NCc1ccccc1,-18.6%,–,"4.61 µM [falling, full curve]"
Cc1ccc(OCCCC(=O)ON=C(N)c2ccccc2C)cc1,-22.7%,"2.06 µM [falling, partial curve]",–
COC(=O)c1c(NC(=O)C2C3CCC(O3)C2C(=O)O)sc2c1CCCCCC2 (stereo not given),-10.3%,"1.46 µM [falling, partial curve]","23.1 µM [falling, single point]"
CCC1CCCCN1C(=O)CSc1nnc(CNC(=O)COc2ccc(Cl)cc2)o1 (stereo not given),–,"1.64 µM [rising, partial curve, poor fit]","16.4 µM [falling, partial curve]"
Cc1ccc2oc(=O)c(-c3ccc(O)cc3)c(C)c2c1,-22.9%,–,"0.116 µM [rising, full curve, poor fit]"

Compound,cell number change,AC50 [1],AC50 [2]
CCc1nnc(NC(=O)Cc2sc(C)nc2-c2ccc(C)cc2)s1,13%,–,–
O=C(COC(=O)CNC(=O)c1ccc(Cl)cc1)Nc1ncc(C(F)(F)F)cc1Cl,-12.8%,–,–
C=CCn1nc([N+](=O)[O-])nc1Sc1cccc2cccnc12,-15.2%,–,"32.6 µM [falling, single point]"
CCCCc1nc(NCCNC(=O)c2ccccc2)c(C#N)c2c1CSC(C)(C)C2,82.1%,"1.84 µM [rising, full curve]","8.2 µM [rising, partial curve]"
O=C(CSc1ccc2nnc(-c3ccncc3)n2n1)Nc1ccc2c(c1)OCCO2,–,"6.51 µM [rising, single point]","6.51 µM [rising, single point]"
COCc1cc(C)n(CC(=O)N/N=C/c2ccc(-c3ccc(Cl)c(C(=O)O)c3)o2)c(=O)c1C#N,8.52%,–,"0.103 µM [falling, full curve, poor fit]"
CN1CCN(CCCNC(=O)c2cn(C)c3ccc(S(=O)(=O)N(C)C)cc3c2=O)CC1,33.4%,"3.26 µM [rising, single point]",–
Cc1ccc(S(=O)(=O)NNc2nnc(C)c(=O)[nH]2)cc1,–,–,"6.51 µM [falling, single point]"
O=c1cc(N2CCOCC2)[nH]c(=O)n1-c1ccc(Br)cc1,–,–,"16.4 µM [falling, partial curve]"
Cc1oc(-c2ccccc2F)nc1CS(=O)CC(=O)NCc1ccccn1 (stereo not given),10.2%,–,"29.1 µM [rising, single point]"
O=C(NCc1ccccn1)c1ccc(NS(=O)(=O)c2cccc(Cl)c2)cc1,-8.38%,–,–
O=C(CN1C(=O)CCOc2ccccc21)Nc1cccc(S(=O)(=O)N2CCOCC2)c1,12.9%,"0.82 µM [falling, full curve]",–
CCCc1ccc2oc(C(=O)N3CCC[C@H]3CO)c(C)c2c1,-1.23%,–,"0.259 µM [rising, full curve]"
Cc1cccc(C(=O)Nc2ccc(C(=O)Nc3ccc(O)cc3)cc2)c1,-34%,"12.6 µM [falling, single point]","12.6 µM [falling, single point]"
CCOC(=O)C1CCCN(C(=O)c2sc3nc(C)nc(N4CCOCC4)c3c2C)C1 (stereo not given),-21.9%,–,"14.6 µM [rising, partial curve]"
Cc1[nH]c(=O)c(C#N)c2c1CCCC2,39.3%,"20.6 µM [rising, single point]",–
O=C(CSC1=Nc2ccccc2C2=NC(c3ccccc3)C(=O)N12)NC1CCCCC1 (stereo not given),–,–,"0.92 µM [rising, partial curve, poor fit]"
Cc1nc(SCC(=O)Nc2ccc(Cl)cc2[N+](=O)[O-])nc(C)c1C,18.6%,–,"9.2 µM [rising, partial curve, poor fit]"
CC1(C)N([O-])C2=C(c3ccccc3C2=O)[N+](=O)C1(C)C,-52.6%,"16.4 µM [falling, single point]","20.6 µM [falling, partial curve]"

# Quoted from the listing.
# Value of `Cc1nc2ccc(NC(=O)c3ccco3)cc2nc1C` under AC50 [2]: 5.17 µM [falling, single point]
# Value of `Cc1[nH]c(=O)c(C#N)c2c1CCCC2` under AC50 [1]: 20.6 µM [rising, single point]
# Value of `CN1CCN(CCCNC(=O)c2cn(C)c3ccc(S(=O)(=O)N(C)C)cc3c2=O)CC1` under AC50 [1]: 3.26 µM [rising, single point]

# From PubChem BioAssay AID2685 (National Center for Advancing Translational Sciences (NCATS), 2010)
